Measurements reported in PubChem BioAssay AID1259405 (NCATS, 2018)
The deposit covers about 50,000 reagents; shown is a random part of them. In the full data, about 4,000 (8%) were called active. 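Mouse siRNA library applied to hamster cells; one well for each siRNA.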 Reagents against one gene are numbered here. Reagent sequences are not shown.

Purpose: 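Knock-downs that lift recombinant protein yield in hamster ovary cells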 (primary screen)
Cell system: Chinese hamster CHO-K1 ovary cells with stable secreted eGFP expression
Reagent: single siRNA against mouse genes, 0.8 pmol siRNA per well (2 µl of 400 nM stock)
Duration: 3 days
Detection: 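Per-well intracellular GFP measured by laser scanning cytometry, plus viability from ATP luminescence, each relative to plate median of non-targeting control wells, in %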
Scale: GFP, % of control: higher = more GFP per well, higher productivity; viability (ATP), % of control: higher = more viable cells (more ATP)
Hit rule: 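a knock-down is called active if GFP reaches 120% or more of non-targeting control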

no.	Gene	reagent	GFP, % of control	viability (ATP), % of control	Outcome
1	Dazap1	1	69.3	98.7	inactive
2	Dazap1	2	73.9	88.9	inactive
3	Dazap1	3	92.2	97	inactive
4	Riox1	1	41.1	51.9	inactive
5	Riox1	2	40.1	58.1	inactive
6	Riox1	3	87.4	97.2	inactive
7	Metrnl	1	76	94.9	inactive
8	Metrnl	2	61.6	81.2	inactive
9	Metrnl	3	187	158	active
10	Stx1b	1	64.5	69.4	inactive
11	Stx1b	2	58	35.9	inactive
12	Stx1b	3	115	108	inactive
13	Stx1b	4	124	74.6	active
14	Stx1b	5	72.5	75.9	inactive
15	Stx1b	6	66.8	76.5	inactive
16	Vmn2r-ps54	1	58.5	69.9	inactive
17	Vmn2r-ps54	2	74.8	82	inactive
18	Vmn2r-ps54	3	54.1	54.5	inactive
19	Gp5	1	161	176	active
20	Gp5	2	128	66.5	active
21	Gp5	3	57.9	68.5	inactive
22	Ldlrad3	1	81.2	43.8	inactive
23	Ldlrad3	2	68.3	68.2	inactive
24	Ldlrad3	3	114	89.2	inactive
25	Rln3	1	67.5	81.5	inactive
26	Rln3	2	53.4	70	inactive
27	Rln3	3	68.3	78.9	inactive
28	Eml6	1	77.6	62.9	inactive
29	Eml6	2	74	82.3	inactive
30	Eml6	3	128	121	active
31	Lyrm7	1	80.9	92.2	inactive
32	Lyrm7	2	106	80.9	inactive
33	Lyrm7	3	41.4	44.4	inactive
34	Ocstamp	1	97.5	88.9	inactive
35	Ocstamp	2	65.3	70.4	inactive
36	Ocstamp	3	79.9	55.5	inactive
37	Txndc2	1	66.1	70.6	inactive
38	Txndc2	2	54.8	61.8	inactive
39	Txndc2	3	67.7	61.2	inactive
40	Btg4	1	62.8	56.4	inactive
41	Btg4	2	91.5	98.3	inactive
42	Btg4	3	95.6	114	inactive
43	Emc1	1	114	80.3	inactive
44	Emc1	2	67.9	84.5	inactive
45	Emc1	3	113	120	inactive
46	Hadhb	1	37.1	62.9	inactive
47	Hadhb	2	96.2	96.9	inactive
48	Hadhb	3	95.7	118	inactive
49	Faim2	1	67.7	57.1	inactive
50	Faim2	2	54.3	60.3	inactive
51	Faim2	3	94.2	63	inactive

Part of the list above, limited to “GFP, % of control”:
Emc1 #1: 114
Emc1 #2: 67.9
Emc1 #3: 113
Hadhb #1: 37.1
Hadhb #2: 96.2
Hadhb #3: 95.7
Faim2 #1: 67.7

The results go on.
no.	Gene	reagent	GFP, % of control	viability (ATP), % of control	Outcome
52	Pnliprp2	1	90.4	88.3	inactive
53	Pnliprp2	2	79.6	104	inactive
54	Pnliprp2	3	62.3	34.9	inactive
55	1700019M22Rik	1	101	84.5	inactive
56	1700019M22Rik	2	161	88.5	active
57	1700019M22Rik	3	81.2	47.4	inactive
58	Phxr1	1	62	39.7	inactive
59	Phxr1	2	62.6	35.4	inactive
60	Phxr1	3	102	19.5	inactive
61	Ppp4c	1	79.9	155	inactive
62	Ppp4c	2	97.7	85.5	inactive
63	Rp1l1	1	47.3	81.9	inactive
64	Rp1l1	2	47.1	58	inactive
65	Rp1l1	3	76.3	67.1	inactive
66	Adcy6	1	43.9	60.6	inactive
67	Adcy6	2	54.4	77.6	inactive
68	Adcy6	3	70.5	75.2	inactive
69	Or8g17	1	58.5	70.1	inactive
70	Or8g17	2	139	80.4	active
71	Or8g17	3	75	105	inactive
72	Ss18	1	41.9	56.6	inactive
73	Ss18	2	78.1	93.5	inactive
74	Ss18	3	55.6	48.5	inactive
75	Grhpr	1	94.3	95.9	inactive
76	Grhpr	2	108	99.7	inactive
77	Grhpr	3	40.6	37.6	inactive
78	Aaas	1	72.7	63.6	inactive
79	Aaas	2	68.7	53.9	inactive
80	Aaas	3	85.8	90.3	inactive
81	Krt2	1	114	115	inactive
82	Krt2	2	97.9	75.9	inactive
83	Fam171b	1	108	90.8	inactive
84	Fam171b	2	87.9	84.5	inactive
85	Fam171b	3	94.8	90	inactive
